# Reference: the supplement of paper PMC5355238
# Counter-ions that a name gives are not always drawn. Some of the results follow. Repeats are few or missing, and single values can be far off.
# Test system: Reh
# Assay: S-phase gammaH2AX median, Z-score vs plate median (drug alone); higher = more S-phase DNA damage
# Settings: MK1775 concentration 0 nM; 10 µM; 4 h
row,SMILES,S-phase gammaH2AX median (Z-score)
1,NC(=O)C1=CN(C2OC(COP(=O)(O)OP(=O)(O)OC[C@H]3O[C@@H](n4cnc5c(N)ncnc54)C(OP(=O)(O)O)[C@H]3O)C(O)C2O)C=CC1 (some centres undefined) [NADPH tetrasodium],-0.0615
2,CC1=C(/C=C/C(C)=C/C=C/C(C)=C/C(=O)O)C(C)(C)CCC1 [Retinoic acid],0.0497
3,CC1=C(C(=O)O)N2C(=O)[C@@H](NC(=O)[C@H](N)C3=CCC=CC3)[C@H]2SC1 [Cephradine],-0.00971
4,"NC(=O)CNCCC(c1ccccc1)c1ccccc1 [N-(3,3-Diphenylpropyl)glycinamide]",0.0661
5,O=C(O)c1ccc(-c2c[nH]c3ncc(-c4ccccc4)cc23)cc1C1CCCC1,-0.0561
6,CN1CCc2cc(Cl)c(O)cc2[C@@H](c2ccccc2)C1,-0.0504
7,Nc1ccc(N2C(=O)c3ccccc3C2=O)c(Cl)c1 [N-(4-Amino-2-chlorophenyl)phthalimide],-0.0854
8,C[C@]12CC[C@@H]3c4ccc(O)cc4CC[C@H]3[C@@H]1CC[C@@H]2O [Estradiol],-0.0174
9,C[C@]12CC[C@@H]3c4ccc(O)cc4CC[C@H]3[C@@H]1CC[C@@H]2O [beta-Estradiol],0.101
10,CN(C)CCOC(c1ccccc1)c1ccccc1 [Diphenhydramine hydrochloride],0.0063
11,OC(CN1CCC(Cc2ccc(F)cc2)CC1)c1ccc(Cl)cc1 (centres undefined) [Eliprodil],-0.0346
12,CN(C)CC/C=C1/c2ccccc2Sc2ccc(Cl)cc21 [Chlorprothixene hydrochloride],0.0951
13,CC(=O)[C@H]1CC[C@H]2[C@@H]3CCC4=CC(=O)CC[C@]4(C)[C@H]3CC[C@]12C [Progesterone],0.00473
14,N=C(N)NC(=O)Cc1c(Cl)cccc1Cl [Guanfacine hydrochloride],0.236
15,CN1C[C@H](O)[C@@H](O)[C@H](O)[C@H]1CO [N-Methyl-1-deoxynojirimycin],0.00946
16,Nc1cccc2c1C(=O)N(C1CCC(=O)NC1=O)C2=O (centres undefined) [Pomalidomide],-0.0398
17,CC(=O)O[C@@]12CO[C@@H]1C[C@H](O)[C@@]1(C)C(=O)[C@H](O)C3=C(C)[C@@H](OC(=O)[C@H](O)[C@@H](NC(=O)OC(C)(C)C)c4ccccc4)C[C@@](O)([C@@H](OC(=O)c4ccccc4)[C@H]21)C3(C)C [Docetaxel (Taxotere)],-0.0491
18,COc1ccccc1N1CCN(CCN(C(=O)C2CCCCC2)c2ccccn2)CC1,0.0868
19,C=CC1=C(C)c2cc3[nH]c(cc4nc(cc5[nH]c(cc1n2)c(C)c5CCC(=O)O)C(CCC(=O)O)=C4C)c(C)c3C=C [Protoporphyrin IX disodium],1.04
20,CO[C@H]1C[C@@H]2CC[C@@H](C)[C@@](O)(O2)C(=O)C(=O)N2CCCC[C@H]2C(=O)O[C@H]([C@H](C)C[C@@H]2CC[C@@H](OCCO)[C@H](OC)C2)CC(=O)[C@H](C)/C=C(\C)[C@@H](O)[C@@H](OC)C(=O)[C@H](C)C[C@H](C)/C=C/C=C/C=C/1C [Everolimus (RAD001)],-0.0576
21,C[n+]1cc2c3c(ccc2c2ccc4cc5c(cc4c21)OCO5)OCO3 [Sanguinarine chloride],8.84
22,Nc1ncnc2c1ncn2[C@@H]1O[C@H](CO)[C@@H](O)[C@H]1O [Adenosine],-0.0369
23,O=c1cc(-c2cccc3c2Sc2ccccc2S3)oc(N2CCOCC2)c1,-0.0754
24,Fc1ccc(C(c2ccc(F)cc2)N2CCN(C/C=C/c3ccccc3)CC2)cc1 [Flunarizine dihydrochloride],-0.0882
25,N#Cc1c(O)c2c(-c3ccc(-c4ccccc4O)cc3)csc2[nH]c1=O,0.0785

# Retrieved one by one from the entries so far (4):
row,SMILES,S-phase gammaH2AX median (Z-score)
24,Fc1ccc(C(c2ccc(F)cc2)N2CCN(C/C=C/c3ccccc3)CC2)cc1 [Flunarizine dihydrochloride],-0.0882
16,Nc1cccc2c1C(=O)N(C1CCC(=O)NC1=O)C2=O (centres undefined) [Pomalidomide],-0.0398
9,C[C@]12CC[C@@H]3c4ccc(O)cc4CC[C@H]3[C@@H]1CC[C@@H]2O [beta-Estradiol],0.101
8,C[C@]12CC[C@@H]3c4ccc(O)cc4CC[C@H]3[C@@H]1CC[C@@H]2O [Estradiol],-0.0174

# (further entries)

row,SMILES,S-phase gammaH2AX median (Z-score)
1,COc1cccc2c1C(=O)c1c(O)c3c(c(O)c1C2=O)C[C@@](O)(C(=O)CO)C[C@@H]3O[C@H]1C[C@H](N)[C@H](O)[C@H](C)O1 [Doxorubicin (Adriamycin)],1.05
2,Cn1cnc2c(NCc3ccccc3)nc(NCCO)nc21 [Olomoucine],-0.0993
3,Nc1nc(Cl)nc2c1ncn2[C@H]1C[C@H](O)[C@@H](CO)O1 [Cladribine],2.48
4,COc1cccc2c1[C@@H]1CN(CCCCn3c(=O)[nH]c4c(sc5ncc(-c6ccccc6)nc54)c3=O)C[C@@H]1CO2 [Fiduxosin hydrochloride],-0.387
5,CCN1CCC[C@H]1CNC(=O)c1c(OC)ccc(I)c1O,0.0535
6,C[C@]12CCC(=O)C=C1CC[C@@H]1[C@@H]2[C@@H](O)C[C@@]2(C)[C@H]1CC[C@]2(O)C(=O)CO [Hydrocortisone],0.0252
7,C[C@]12CCC(=O)C=C1CC[C@@H]1[C@@H]2[C@@H](O)C[C@@]2(C)[C@H]1CC[C@]2(O)C(=O)CO [Hydrocortisone (Cortisol)],0.0437
8,CNCCCC1c2ccccc2C=Cc2ccccc21 [Protriptyline hydrochloride],0.116
9,S=C(S)OC1CC2CC1C1CCCC21 [D-609 potassium],-0.327
10,Oc1ncnc2[nH]ncc12 [Allopurinol],0.0583
11,CCC(=O)N1CCN(c2ccc(-n3c(=O)ccc4cnc5ccc(-c6cnc7ccccc7c6)cc5c43)cc2C(F)(F)F)CC1 [Torin 1],-0.222
12,C[N+]1(CCCCC[N+]2(C)CCCC2)CCCC1 [Pentolinium di[L(+)-tartrate]],-0.466
13,O=C(Nc1ccccc1)c1cc([N+](=O)[O-])ccc1Cl,-0.0899
14,COc1ccc(CCN(C)CCCC(C#N)(c2ccc(OC)c(OC)c2)C(C)C)cc1OC (centres undefined) [(?)-Verapamil hydrochloride],-0.627
15,Cc1cc(C(C)(C)C)c(O)c(C)c1CC1=NCCN1 [Oxymetazoline hydrochloride],0.17
16,O=c1cc(N2CCOCC2)oc2c(-c3cccc4c3sc3ccccc34)cccc12,-0.113
17,CC(C)(C(=O)O)c1ccc(C(O)CCCN2CCC(C(O)(c3ccccc3)c3ccccc3)CC2)cc1 (centres undefined) [Fexofenadine hydrochloride],0.0535
18,CC(N)=NCCCC[C@H](N)C(=O)O [L-N6-(1-Iminoethyl)lysine hydrochloride],0.101
19,O=C(O)CCC(NC(=O)c1ccccc1C(=O)O)C(=O)O [Phthalamoyl-L-glutamic acid trisodium],-0.052
20,Cc1ccc(O)c(N=Nc2ccccc2)n1,-0.254
21,CSc1ccc2c(c1)C(N1CCN(C)CC1)Cc1ccccc1S2 (centres undefined) [Methiothepin mesylate],-0.147
22,CN1CCc2cc(O)c(O)cc2C(c2ccccc2)C1 (centres undefined),-0.0868
23,CCCCCC[C@@H]([C@@H](C)O)n1cnc2c(N)ncnc21 [erythro-9-(2-Hydroxy-3-nonyl)adenine hydrochloride],0.0535
24,CC[N+](C)(C)Cc1ccccc1Br [Bretylium tosylate],-0.00194
25,C[N+](C)(C)CCCCCC[N+](C)(C)C [Hexamethonium dichloride],0.0661

row,SMILES,S-phase gammaH2AX median (Z-score)
1,C[N+](C)(C)CCCCCC[N+](C)(C)C [Hexamethonium bromide],0.167
2,CN1C(C)(C)CCCC1(C)C [Pempidine tartrate],-0.052
3,"Cc1cn(C2C=CC(CO)O2)c(=O)[nH]c1=O (centres undefined) [2',3'-didehydro-3'-deoxythymidine]",0.532
4,CC(CCc1ccccc1)NCC(O)c1ccc(O)c(C(N)=O)c1 (centres undefined) [Labetalol hydrochloride],-0.0882
5,O=C(O)c1cccnc1Nc1cccc(C(F)(F)F)c1 [Niflumic acid],0.0426
6,Cc1oncc1C(=O)Nc1ccc(C(F)(F)F)cc1 [Leflunomide],0.0922
7,O=C(CCc1ccc(O)cc1)c1c(O)cc(O)cc1O [Phloretin],0.475
8,O=C(CCc1ccc(O)cc1)c1c(O)cc(O)cc1O [Phloretin (Dihydronaringenin)],-0.0298
9,CC1(NC(=O)CBr)CCC(C(C)(C)NCC(O)COc2cccc3[nH]ccc23)CC1 (centres undefined) [(?)-Pindobind],0.0426
10,CNC[C@H](O)c1ccc(O)c(O)c1 [(-)-Epinephrine bitartrate],0.0693
11,CN1CCN(CCCN2c3ccccc3Sc3ccc(C(F)(F)F)cc32)CC1 [Trifluoperazine dihydrochloride],-0.521
12,CCc1cc(Nc2nccc(-c3c(-c4ccc(OC)c(C(=O)Nc5c(F)cccc5F)c4)nc4ccccn34)n2)c(OC)cc1N1CCC(N2CCN(S(C)(=O)=O)CC2)CC1,-0.08
13,"Nc1ccn([C@H]2CC[C@@H](CO)O2)c(=O)n1 [2',3'-dideoxycytidine]",1.11
14,CC(C)(C#N)c1cc(Cn2cncn2)cc(C(C)(C)C#N)c1 [Anastrozole],-0.0986
15,COc1cc2nccc(Oc3ccc(NC(=O)Nc4cc(C)on4)c(Cl)c3)c2cc1OC [Tivozanib (AV-951)],-0.123
16,CCCCCCCCCCCCCCC[C@H](O)[C@H](N)CO (racemic) [DL-erythro-Dihydrosphingosine],-0.00945
17,CN(C)CCOC(C)(c1ccccc1)c1ccccn1 (centres undefined) [Doxylamine succinate],0.0661
18,COc1cccc(-c2cc(=O)c3ccccc3o2)c1N,-0.0946
19,C[C@]1(O)C[C@@H](c2nc(-c3ccc4ccc(-c5ccccc5)nc4c3)c3c(N)nccn32)C1 [Linsitinib (OSI-906)],0.053
20,O=C(C1CCCCC1)N1CC(=O)N2CCc3ccccc3C2C1 (centres undefined) [Praziquantel],0.196
21,C(=C\c1ccccc1)/CN1CCN(C(c2ccccc2)c2ccccc2)CC1 [Cinnarizine],0.00777
22,COc1ccc2c(c1)c(CC(=O)O)c(C)n2C(=O)c1ccc(Cl)cc1 [Indomethacin],0.18
23,Nc1nc2ccc(OC(F)(F)F)cc2s1 [Riluzole],-0.254
24,CN1CCc2c(cc(O)c(O)c2Cl)C(c2cccc(Cl)c2)C1 (centres undefined),-0.654
